# Values of other authors as cited in patent US20140275174A1, “TREATMENT OF OVARIAN CANCER WITH 2-AMINO-4H-NAPHTHO[1,2-b]PYRAN-3-CARBONITRILES” (MEMORIAL SLOAN-KETTERING CANCER CENTER, priority 2011, published 2014).
# Some entries share one result that the patent states for a list of compounds. At least one compound was matched to its structure with a doubt left.
# Test system: Ovcar3-GTL-derived catenae
# Settings: shown in WO2011/057034
compound,measurement,value
C/C(=C\c1csc(C)n1)[C@@H]1C/C=C(/C(F)(F)F)C/C=C/[C@H](C)[C@H](O)[C@@H](C)C(=O)C(C)(C)[C@@H](O)CC(=O)O1 [fludelone],resistance in catenae conferred by formation of glycocalyx,"more than 8,000,000 fold"
